Measurements taken from patent US7410966B2, “Use of and some novel imidazopyridines” (AstraZeneca AB, priority 2002, dated 2008).
Structures can show the parent of a compound that is named as a salt. Some results were stated once for a whole list of compounds, not compound by compound.

biological target: T1, recombinant human Itk kinase domain fused with GST (Homo sapiens, UniProt Q08881); test: Itk LANCE TRF Assay; assay type: biochemical; settings: 2 μM biotinylated peptide substrate, 50 μM ATP, 50 minutes RT, read-out: Inhibition of Kinase Itk (IC50 μM)
T1 construct: recombinant human Itk kinase domain fused with GST (Glutathione S-Transferase); GST (Glutathione S-Transferase); made in house; host or cells: High Five insect cells
T1 sequence (Q08881 363-615 limits assumed): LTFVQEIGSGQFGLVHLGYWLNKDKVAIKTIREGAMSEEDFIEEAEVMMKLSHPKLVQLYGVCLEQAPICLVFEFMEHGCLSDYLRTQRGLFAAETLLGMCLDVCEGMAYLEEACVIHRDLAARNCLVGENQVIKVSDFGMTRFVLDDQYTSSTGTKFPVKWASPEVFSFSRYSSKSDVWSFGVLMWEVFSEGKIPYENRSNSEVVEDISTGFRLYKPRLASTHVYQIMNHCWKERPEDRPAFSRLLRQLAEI

Row | SMILES | IC50
1 | CCN(CC)c1ccc(Nc2c(Cl)cnc3nc(-c4ccc(OCCN5CCOCC5)cc4)[nH]c23)cc1 [Example 231, N′-(6-Chloro-2-{4-[2-(4-morpholinyl)ethoxy]phenyl}-1H-imidazo[4,5-b]pyridin-7-yl)-N,N-diethyl-1,4-benzenediamine] | < 25 µM
2 | COc1ccc(S(=O)(=O)Nc2ccc(-c3nc4ncc(Br)c(C)c4[nH]3)cc2)cc1 [Example 264, N-[4-(6-Bromo-7-methyl-1H-imidazo[4,5-b]pyridin-2-yl)phenyl]-4-methoxybenzenesulfonamide] | < 25 µM
3 | COc1cccc(CNc2ccc(-c3nc4cc(Br)cnc4[nH]3)cn2)c1 [Example 205, 5-(6-Bromo-3H-imidazo[4,5-b]pyridin-2-yl)-N-(3-methoxybenzyl)pyridin-2-amine bis(trifluoroacetate)] | < 25 µM
4 | CS(=O)(=O)N1CCC(Nc2c(Cl)cnc3nc(-c4ccc(OCCN5CCOCC5)cc4)[nH]c23)C1 (stereo not drawn) [Example 209, 6-Chloro-N-[1-(methylsulfonyl)-3-pyrrolidinyl]-2-{4-[2-(4-morpholinyl)ethoxy]phenyl}-1H-imidazo[4,5-b]pyridin-7-amine] | < 25 µM
5 | COc1ccc(-c2nc3cc(Br)cnc3[nH]2)cc1 [Example 27, 6-Bromo-2-(4-methoxyphenyl)-3H-imidazo[4,5-b]pyridine trifluoroacetate] | < 25 µM
6 | OC(CNCc1ccccc1Cl)COc1ccc(-c2nc3cc(Br)cnc3[nH]2)cc1 (stereo not drawn) [Example 141, 1-[4-(6-Bromo-3H-imidazo[4,5-b]pyridin-2-yl)phenoxy]-3-[(2-chlorobenzyl)amino]propan-2-ol bis(trifluoroacetate)] | < 25 µM
7 | Nc1cc(-c2nc3ncc(Cl)c(Cl)c3[nH]2)ccc1OCCN1CCOCC1 [Example 247, 5-(6,7-Dichloro-1H-imidazo[4,5-b]pyridin-2-yl)-2-[2-(4-morpholinyl)ethoxy]aniline] | < 25 µM
8 | Brc1cnc2[nH]c(-c3ccc(OCCNCCCn4ccnc4)cc3)nc2c1 [Example 68, N-{2-[4-(6-Bromo-3H-imidazo[4,5-b]pyridin-2-yl)phenoxy]ethyl}-N-[3-(1H-imidazol-1-yl)propyl]amine bis(trifluoroacetate)] | < 25 µM
9 | OC(COc1ccc(-c2nc3cc(Br)cnc3[nH]2)cc1)CN1CCN(c2ccccc2)CC1 (stereo not drawn) [Example 137, 1-[4-(6-Bromo-3H-imidazo[4,5-b]pyridin-2-yl)phenoxy]-3-(4-phenylpiperazin-1-yl)propan-2-ol bis(trifluoroacetate)] | < 25 µM
10 | N#Cc1cnc2[nH]c(-c3ccc(OCCN4CCOCC4)cc3)nc2c1Cl [Example 243, 7-Chloro-2-[4-(2-morpholin-4-ylethoxy)phenyl]-3H-imidazo[4,5-b]pyridine-6-carbonitrile] | < 25 µM
11 | Brc1cnc2[nH]c(-c3ccc(NCc4cccs4)cc3)nc2c1 [Example 188, N-[4-(6-Bromo-3H-imidazo[4,5-b]pyridin-2-yl)phenyl]-N-(thien-2-ylmethyl)amine bis(trifluoroacetate)] | < 25 µM
12 | Nc1ccc(-c2nc3cc(Br)cnc3[nH]2)cc1 [Example 174, 4-(6-Bromo-3H-imidazo[4,5-b]pyridin-2-yl)aniline] | < 25 µM
13 | COc1cccc(CNCCOc2ccc(-c3nc4cc(Br)cnc4[nH]3)cc2)c1 [Example 70, N-{2-[4-(6-Bromo-3H-imidazo[4,5-b]pyridin-2-yl)phenoxy]ethyl}-N-(3-methoxybenzyl)amine bis(trifluoroacetate)] | < 25 µM
14 | OC(CNCc1ccncc1)COc1ccc(-c2nc3cc(Br)cnc3[nH]2)cc1 (stereo not drawn) [Example 152, 1-[4-(6-Bromo-3H-imidazo[4,5-b]pyridin-2-yl)phenoxy]-3-[(pyridin-4-ylmethyl)amino]propan-2-ol bis(trifluoroacetate)] | < 25 µM
15 | OC(COc1ccc(-c2nc3cc(Br)cnc3[nH]2)cc1)CN1CCOCC1 (stereo not drawn) [Example 123, 1-[4-(6-Bromo-3H-imidazo[4,5-b]pyridin-2-yl)phenoxy]-3-morpholin-4-ylpropan-2-ol] | < 25 µM
16 | Oc1ccc(-c2nc3cc(Br)cnc3[nH]2)cc1 [Example 1, 4-(6-Bromo-3H-imidazo[4,5-b]pyridin-2-yl)phenol] | < 25 µM
17 | Clc1snnc1COc1ccc(-c2nc3cc(Br)cnc3[nH]2)cc1 [Example 3] | < 25 µM
18 | OC(COc1ccc(-c2nc3cc(Br)cnc3[nH]2)cc1)CN1CCN(c2ccccn2)CC1 (stereo not drawn) [Example 138, 1-[4-(6-Bromo-3H-imidazo[4,5-b]pyridin-2-yl)phenoxy]-3-(4-pyridin-2-ylpipiperazin-1-yl)propan-2-ol bis(trifluoroacetate)] | < 25 µM
19 | Oc1ccccc1-c1nc2cc(Br)cnc2[nH]1 [Example 25, 2-(6-Bromo-3H-imidazo[4,5-b]pyridin-2-yl)phenol trifluoroacetate] | < 25 µM
20 | Brc1cnc2[nH]c(-c3ccc(OCCNc4nccs4)cc3)nc2c1 [Example 104, N-{2-[4-(6-Bromo-3H-imidazo[4,5-b]pyridin-2-yl)phenoxy]ethyl}-1,3-thiazol-2-amine bis(trifluoroacetate)] | < 25 µM

Row | SMILES | IC50
21 | CCN1CCCC(NCCOc2ccc(-c3nc4cc(Br)cnc4[nH]3)cc2)C1 (stereo not drawn) [Example 85, N-{2-[4-(6-Bromo-3H-imidazo[4,5-b]pyridin-2-yl)phenoxy]ethyl}-1-ethylpiperidin-3-amine bis(trifluoroacetate)] | < 25 µM
22 | COc1ccc(-c2nc3cc(OC)cnc3[nH]2)cc1 [Example 120, 6-Methoxy-2-(4-methoxyphenyl)-3H-imidazo[4,5-b]pyridine trifluoroacetate] | < 25 µM
23 | COc1cc(N(C)C)ccc1-c1nc2cc(Br)cnc2[nH]1 [Example 18, N-[4-(6-bromo-3H-imidazo[4,5-b]pyridin-2-yl)-3-methoxyphenyl]-N,N-dimethylamine] | < 25 µM
24 | Brc1cnc2[nH]c(-c3ccc(N4CCCC4)cc3)nc2c1 [Example 33, 6-Bromo-2-(4-pyrrolidin-1-ylphenyl)-3H-imidazo[4,5-b]pyridine bis(trifluoroacetate)] | < 25 µM
25 | O=[N+]([O-])c1ccc(-c2nc3cc(Br)cnc3[nH]2)cc1 [Example 37, 6-Bromo-2-(4-nitrophenyl)-3H-imidazo[4,5-b]pyridine] | < 25 µM
26 | OCC1CCN(CC(O)COc2ccc(-c3nc4cc(Br)cnc4[nH]3)cc2)CC1 (stereo not drawn) [Example 158, 1-[4-(6-Bromo-3H-imidazo[4,5-b]pyridin-2-yl)phenoxy]-3-[4-(hydroxymethyl)piperidin-1-yl]propan-2-ol bis(trifluoroacetate)] | < 25 µM
27 | Brc1cnc2[nH]c(-c3ccc(OCCCN4CCCCC4)cc3)nc2c1 [Example 47, 6-Bromo-2-[4-(3-piperidin-1-ylpropoxy)phenyl]-3H-imidazo[4,5-b]pyridine] | < 25 µM
28 | N#Cc1cccc(CNc2ccc(-c3nc4cc(Br)cnc4[nH]3)cc2)c1 [Example 179] | < 25 µM
29 | Brc1cnc2[nH]c(-c3cn(-c4ccccc4)nn3)nc2c1 [Example 9, 6-Bromo-2-(1-phenyl-1H-1,2,3-triazol-4-yl)-3H-imidazo[4,5-b]pyridine] | < 25 µM
30 | Brc1cnc2[nH]c(-c3ccc(OCCCN4CCOCC4)cc3)nc2c1 [Example 46, 6-Bromo-2-[4-(3-morpholin-4-ylpropoxy)phenyl]-3H-imidazo[4,5-b]pyridine] | < 25 µM
31 | COc1ccccc1-c1nc2cc(Br)cnc2[nH]1 [Example 22, 6-Bromo-2-(2-methoxyphenyl)-3H-imidazo[4,5-b]pyridine trifluoroacetate] | < 25 µM
32 | OC1CCN(CC(O)COc2ccc(-c3nc4cc(Br)cnc4[nH]3)cc2)CC1 (stereo not drawn) [Example 127, 1-{3-[4-(6-Bromo-3H-imidazo[4,5-b]pyridin-2-yl)phenoxy]-2-hydroxypropyl}piperidin-4-ol bis(trifluoroacetate)] | < 25 µM
33 | Brc1cnc2[nH]c(-c3ccc(N4CCOCC4)nc3)nc2c1 [Example 40, 6-Bromo-2-(6-morpholin-4-ylpyridin-3-yl)-3H-imidazo[4,5-b]pyridine bis(trifluoroacetate)] | < 25 µM
34 | NC(=O)C1CCN(CC(O)COc2ccc(-c3nc4cc(Br)cnc4[nH]3)cc2)CC1 (stereo not drawn) [Example 160, 1-{3-[4-(6-Bromo-3H-imidazo[4,5-b]pyridin-2-yl)phenoxy]-2-hydroxypropyl}piperidine-4-carboxamide bis(trifluoroacetate)] | < 25 µM
35 | Brc1cnc2[nH]c(-c3ccc(NCc4ncc[nH]4)cc3)nc2c1 [Example 177, N-[4-(6-Bromo-3H-imidazo[4,5-b]pyridin-2-yl)phenyl]-N-(1H-imidazol-2-ylmethyl)amine bis(trifluoroacetate)] | < 25 µM
36 | N#Cc1ccc(N2CCN(CCOc3ccc(-c4nc5cc(Br)cnc5[nH]4)cc3)CC2)nc1 [Example 108, 6-(4-{2-[4-(6-Bromo-3H-imidazo[4,5-b]pyridin-2-yl)phenoxy]ethyl}piperazin-1-yl)nicotinonitrile bis(trifluoroacetate)] | < 25 µM
37 | OC1CCCN(CC(O)COc2ccc(-c3nc4cc(Br)cnc4[nH]3)cc2)C1 (stereo not drawn) [Example 156, 1-{3-[4-(6-Bromo-3H-imidazo[4,5-b]pyridin-2-yl)phenoxy]-2-hydroxypropyl}piperidin-3-ol bis(trifluoroacetate)] | < 25 µM
38 | COc1c(Cl)cnc2[nH]c(-c3ccc(OCCN4CCCCC4)cc3)nc12 [Example 273, 6-Chloro-7-methoxy-2-[4-(2-piperidin-1-ylethoxy)phenyl]-3H-imidazo[4,5-b]pyridine] | < 25 µM
39 | OCc1ccc(-c2nc3cc(Br)cnc3[nH]2)o1 [Example 7, [5-(6-Bromo-3H-imidazo[4,5-b]pyridin-2-yl)-2-furyl]methanol] | < 25 µM
